No constants are given. Whether binding was seen depends on the method and setting. Some entries that bind do so weakly or less than the wild type.
How the values were obtained:
human CD37 (human) [1] = target: human CD37 (human) (UniProt P11049); experiment: flow cytometry on Ramos cells
human CD37 (human) [2] = target: human CD37 (human) (UniProt P11049); experiment: flow cytometry on Ramos cells (Example 4)

By UniProt entry, the sequences of proteins in these tests, tags left out.
UniProt P11049: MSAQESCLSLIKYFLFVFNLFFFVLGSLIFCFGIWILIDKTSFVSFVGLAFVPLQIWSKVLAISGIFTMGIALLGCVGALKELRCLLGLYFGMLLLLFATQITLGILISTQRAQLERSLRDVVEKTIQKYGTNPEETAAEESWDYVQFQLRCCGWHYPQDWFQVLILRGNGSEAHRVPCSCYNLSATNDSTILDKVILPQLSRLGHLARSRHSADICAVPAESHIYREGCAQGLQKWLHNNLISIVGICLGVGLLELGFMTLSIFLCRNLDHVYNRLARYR

B1: HC1 + LC1 with 14 CBM (antibody, human IgG1, V domains shown)
VH: QIQLVQSGAELVKPGASVKVSCKASGYSFTDYNMYWVKQAPGQRLEWIGYIDPYNGDTTYNQKFKGRATLTVDTSASTAYIELSSLRSEDTAVYYCARSPYGHYAMDYWGQGTLVTVSS
VL: DIQMTQSPSSLSTSVGDRVTITCKASQDVSTAVDWYQQKPGKSPKLLINWASTRHTGVPSRFSGSGSGTDYTLTISSMQPEDFATYYCRQHYSTPFTFGQGTKLEIK
binding (human CD37 (human) [1]): binds
binding (human CD37 (human) [2]): binds
